Some results were stated once for a whole list of compounds, not compound by compound. At least one compound was matched to its structure with a doubt left.
Test system: TNF-α
Test: Lipopolysaccharide-activated THP1 cell TNF production assay (LPS induced TNF release)
Format: cell-based, human
Details: THP1 cells, bacterial LPS, secreted TNF-α after 3 h at 37° C.
Protocol: Lipopolysaccharide-Activated THP1 Cell TNF Production Assay
THP1 cells are resuspended in fresh THP1 media (RPMI 1640, 10% heat-inactivated FBS, 1XPGS, 1XNEAA, plus 30 μM βME) at a concentration of 1E6/mL. One hundred microliters of cells per well are plated in a polystyrene 96-well tissue culture. One microgram per mL of bacterial LPS is prepared in THP1 media and is transferred to the wells. Test compounds are dissolved in 100% DMSO and are serially diluted 3 fold in a polypropylene 96-well microtiter plate (drug plate). HI control and LO control wells contain only DMSO. One microliter of test compound from the drug plate followed by 10 μL of LPS are transferred to the cell plate. The treated cells are induced to synthesize and secrete TNF-α at 37° C. for 3 h. […] After a 2 h incubation at room temperature with shaking, the reaction is read on the ECL M8 Instrument (IGEN Inc.). […] The amount of secreted TNF-α: in the presence of compound compared with that in the presence of DMSO vehicle alone (HI control) is calculated using the formula:% control (POC)=(cpd−average LO)/(average HI−average LO)*100. […]

An IC50 of no more than 20 µM was found for CN(c1ccnc(NC2CCNCC2)n1)c1nc(-c2ccccc2)cc2ncnn12 in this work.
